Here are results for three molecules from article PMC7889885.

Experiment [1] concerns the target T1, human NKCC1 (hNKCC1a, SLC12A2), twin-Strep tagged, as prepared for cryo-EM (human), P55011.
T1 chain: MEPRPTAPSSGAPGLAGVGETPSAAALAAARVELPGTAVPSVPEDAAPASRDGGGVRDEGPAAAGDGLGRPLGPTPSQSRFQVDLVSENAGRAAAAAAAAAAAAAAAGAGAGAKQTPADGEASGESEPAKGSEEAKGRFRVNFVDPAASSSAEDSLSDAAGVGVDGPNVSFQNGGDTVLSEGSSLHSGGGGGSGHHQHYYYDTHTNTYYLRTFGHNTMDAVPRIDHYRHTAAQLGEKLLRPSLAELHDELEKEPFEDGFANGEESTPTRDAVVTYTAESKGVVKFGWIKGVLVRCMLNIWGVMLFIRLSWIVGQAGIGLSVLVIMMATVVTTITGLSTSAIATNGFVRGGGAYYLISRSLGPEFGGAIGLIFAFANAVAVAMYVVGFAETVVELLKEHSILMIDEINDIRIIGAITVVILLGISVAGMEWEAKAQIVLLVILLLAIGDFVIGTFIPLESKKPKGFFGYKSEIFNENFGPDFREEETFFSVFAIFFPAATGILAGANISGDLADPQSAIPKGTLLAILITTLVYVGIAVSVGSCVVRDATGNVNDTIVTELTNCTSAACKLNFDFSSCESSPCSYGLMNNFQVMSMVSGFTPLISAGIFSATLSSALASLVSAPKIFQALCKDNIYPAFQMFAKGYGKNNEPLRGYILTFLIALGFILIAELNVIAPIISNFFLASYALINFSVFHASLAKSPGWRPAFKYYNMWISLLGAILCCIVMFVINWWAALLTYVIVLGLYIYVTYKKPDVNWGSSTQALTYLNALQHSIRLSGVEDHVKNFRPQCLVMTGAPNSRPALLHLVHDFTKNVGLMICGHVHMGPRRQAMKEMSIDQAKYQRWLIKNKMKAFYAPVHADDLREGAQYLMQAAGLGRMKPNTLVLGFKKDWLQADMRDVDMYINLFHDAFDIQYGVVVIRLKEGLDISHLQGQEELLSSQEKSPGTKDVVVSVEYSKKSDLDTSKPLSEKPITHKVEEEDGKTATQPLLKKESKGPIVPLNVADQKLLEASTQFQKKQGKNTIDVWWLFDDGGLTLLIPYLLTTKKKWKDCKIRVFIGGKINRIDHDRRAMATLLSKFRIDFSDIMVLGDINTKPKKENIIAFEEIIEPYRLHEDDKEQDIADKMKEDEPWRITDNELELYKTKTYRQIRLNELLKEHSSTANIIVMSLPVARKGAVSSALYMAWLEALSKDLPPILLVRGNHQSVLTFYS
Put plainly: cryo-EM structure; single-particle cryo-EM of the purified transporter in 20 mM HEPES pH 7.4, 150 mM NaCl, 0.1% digitonin, ~10 mg/ml; C2 symmetry imposed; both purified. As to conditions: remark: other sources report otherwise.

In experiment [2] the target is full-length hNKCC1 tagged with flag and YFP, F728C in the C723S-C724V double mutation (human) (UniProt P55011). Put plainly: cross-linking; oxidative cross-linking of single-cysteine mutants in HEK293 cells with 1.5 mM cupric phenanthroline in regular medium for 10-40 min before lysis; blot with T4 antibody.
Experiment [3] deals with full-length hNKCC1 tagged with flag and YFP, W733C in the C723S-C724V double mutation (human) (UniProt P55011). The experiment is described as above.

No constants are given. Whether binding was seen depends on the method and setting. For part of these data: Binding seen in cells or lysates may run through a third protein. Some entries that bind do so weakly or less than the wild type. Where a sequence is shown, tags or fusion partners need not be part of it.

B1: human NKCC1 (hNKCC1a, SLC12A2), twin-Strep tagged, as prepared for cryo-EM, P55011 1-1212 (natural protein)
chain: MEPRPTAPSSGAPGLAGVGETPSAAALAAARVELPGTAVPSVPEDAAPASRDGGGVRDEGPAAAGDGLGRPLGPTPSQSRFQVDLVSENAGRAAAAAAAAAAAAAAAGAGAGAKQTPADGEASGESEPAKGSEEAKGRFRVNFVDPAASSSAEDSLSDAAGVGVDGPNVSFQNGGDTVLSEGSSLHSGGGGGSGHHQHYYYDTHTNTYYLRTFGHNTMDAVPRIDHYRHTAAQLGEKLLRPSLAELHDELEKEPFEDGFANGEESTPTRDAVVTYTAESKGVVKFGWIKGVLVRCMLNIWGVMLFIRLSWIVGQAGIGLSVLVIMMATVVTTITGLSTSAIATNGFVRGGGAYYLISRSLGPEFGGAIGLIFAFANAVAVAMYVVGFAETVVELLKEHSILMIDEINDIRIIGAITVVILLGISVAGMEWEAKAQIVLLVILLLAIGDFVIGTFIPLESKKPKGFFGYKSEIFNENFGPDFREEETFFSVFAIFFPAATGILAGANISGDLADPQSAIPKGTLLAILITTLVYVGIAVSVGSCVVRDATGNVNDTIVTELTNCTSAACKLNFDFSSCESSPCSYGLMNNFQVMSMVSGFTPLISAGIFSATLSSALASLVSAPKIFQALCKDNIYPAFQMFAKGYGKNNEPLRGYILTFLIALGFILIAELNVIAPIISNFFLASYALINFSVFHASLAKSPGWRPAFKYYNMWISLLGAILCCIVMFVINWWAALLTYVIVLGLYIYVTYKKPDVNWGSSTQALTYLNALQHSIRLSGVEDHVKNFRPQCLVMTGAPNSRPALLHLVHDFTKNVGLMICGHVHMGPRRQAMKEMSIDQAKYQRWLIKNKMKAFYAPVHADDLREGAQYLMQAAGLGRMKPNTLVLGFKKDWLQADMRDVDMYINLFHDAFDIQYGVVVIRLKEGLDISHLQGQEELLSSQEKSPGTKDVVVSVEYSKKSDLDTSKPLSEKPITHKVEEEDGKTATQPLLKKESKGPIVPLNVADQKLLEASTQFQKKQGKNTIDVWWLFDDGGLTLLIPYLLTTKKKWKDCKIRVFIGGKINRIDHDRRAMATLLSKFRIDFSDIMVLGDINTKPKKENIIAFEEIIEPYRLHEDDKEQDIADKMKEDEPWRITDNELELYKTKTYRQIRLNELLKEHSSTANIIVMSLPVARKGAVSSALYMAWLEALSKDLPPILLVRGNHQSVLTFYS
For B1, the binding entry in experiment [1] was “binds”.

B2: full-length hNKCC1 tagged with flag and YFP, F728C in the C723S-C724V double mutation (protein, UniProt P55011 1-1212)
chain: MEPRPTAPSSGAPGLAGVGETPSAAALAAARVELPGTAVPSVPEDAAPASRDGGGVRDEGPAAAGDGLGRPLGPTPSQSRFQVDLVSENAGRAAAAAAAAAAAAAAAGAGAGAKQTPADGEASGESEPAKGSEEAKGRFRVNFVDPAASSSAEDSLSDAAGVGVDGPNVSFQNGGDTVLSEGSSLHSGGGGGSGHHQHYYYDTHTNTYYLRTFGHNTMDAVPRIDHYRHTAAQLGEKLLRPSLAELHDELEKEPFEDGFANGEESTPTRDAVVTYTAESKGVVKFGWIKGVLVRCMLNIWGVMLFIRLSWIVGQAGIGLSVLVIMMATVVTTITGLSTSAIATNGFVRGGGAYYLISRSLGPEFGGAIGLIFAFANAVAVAMYVVGFAETVVELLKEHSILMIDEINDIRIIGAITVVILLGISVAGMEWEAKAQIVLLVILLLAIGDFVIGTFIPLESKKPKGFFGYKSEIFNENFGPDFREEETFFSVFAIFFPAATGILAGANISGDLADPQSAIPKGTLLAILITTLVYVGIAVSVGSCVVRDATGNVNDTIVTELTNCTSAACKLNFDFSSCESSPCSYGLMNNFQVMSMVSGFTPLISAGIFSATLSSALASLVSAPKIFQALCKDNIYPAFQMFAKGYGKNNEPLRGYILTFLIALGFILIAELNVIAPIISNFFLASYALINFSVFHASLAKSPGWRPAFKYYNMWISLLGAILSVIVMCVINWWAALLTYVIVLGLYIYVTYKKPDVNWGSSTQALTYLNALQHSIRLSGVEDHVKNFRPQCLVMTGAPNSRPALLHLVHDFTKNVGLMICGHVHMGPRRQAMKEMSIDQAKYQRWLIKNKMKAFYAPVHADDLREGAQYLMQAAGLGRMKPNTLVLGFKKDWLQADMRDVDMYINLFHDAFDIQYGVVVIRLKEGLDISHLQGQEELLSSQEKSPGTKDVVVSVEYSKKSDLDTSKPLSEKPITHKVEEEDGKTATQPLLKKESKGPIVPLNVADQKLLEASTQFQKKQGKNTIDVWWLFDDGGLTLLIPYLLTTKKKWKDCKIRVFIGGKINRIDHDRRAMATLLSKFRIDFSDIMVLGDINTKPKKENIIAFEEIIEPYRLHEDDKEQDIADKMKEDEPWRITDNELELYKTKTYRQIRLNELLKEHSSTANIIVMSLPVARKGAVSSALYMAWLEALSKDLPPILLVRGNHQSVLTFYS
Regarding B2, the binding entry in experiment [2] is “binds”.

B3: full-length hNKCC1 tagged with flag and YFP, W733C in the C723S-C724V double mutation (protein, UniProt P55011 1-1212)
chain: MEPRPTAPSSGAPGLAGVGETPSAAALAAARVELPGTAVPSVPEDAAPASRDGGGVRDEGPAAAGDGLGRPLGPTPSQSRFQVDLVSENAGRAAAAAAAAAAAAAAAGAGAGAKQTPADGEASGESEPAKGSEEAKGRFRVNFVDPAASSSAEDSLSDAAGVGVDGPNVSFQNGGDTVLSEGSSLHSGGGGGSGHHQHYYYDTHTNTYYLRTFGHNTMDAVPRIDHYRHTAAQLGEKLLRPSLAELHDELEKEPFEDGFANGEESTPTRDAVVTYTAESKGVVKFGWIKGVLVRCMLNIWGVMLFIRLSWIVGQAGIGLSVLVIMMATVVTTITGLSTSAIATNGFVRGGGAYYLISRSLGPEFGGAIGLIFAFANAVAVAMYVVGFAETVVELLKEHSILMIDEINDIRIIGAITVVILLGISVAGMEWEAKAQIVLLVILLLAIGDFVIGTFIPLESKKPKGFFGYKSEIFNENFGPDFREEETFFSVFAIFFPAATGILAGANISGDLADPQSAIPKGTLLAILITTLVYVGIAVSVGSCVVRDATGNVNDTIVTELTNCTSAACKLNFDFSSCESSPCSYGLMNNFQVMSMVSGFTPLISAGIFSATLSSALASLVSAPKIFQALCKDNIYPAFQMFAKGYGKNNEPLRGYILTFLIALGFILIAELNVIAPIISNFFLASYALINFSVFHASLAKSPGWRPAFKYYNMWISLLGAILSVIVMFVINWCAALLTYVIVLGLYIYVTYKKPDVNWGSSTQALTYLNALQHSIRLSGVEDHVKNFRPQCLVMTGAPNSRPALLHLVHDFTKNVGLMICGHVHMGPRRQAMKEMSIDQAKYQRWLIKNKMKAFYAPVHADDLREGAQYLMQAAGLGRMKPNTLVLGFKKDWLQADMRDVDMYINLFHDAFDIQYGVVVIRLKEGLDISHLQGQEELLSSQEKSPGTKDVVVSVEYSKKSDLDTSKPLSEKPITHKVEEEDGKTATQPLLKKESKGPIVPLNVADQKLLEASTQFQKKQGKNTIDVWWLFDDGGLTLLIPYLLTTKKKWKDCKIRVFIGGKINRIDHDRRAMATLLSKFRIDFSDIMVLGDINTKPKKENIIAFEEIIEPYRLHEDDKEQDIADKMKEDEPWRITDNELELYKTKTYRQIRLNELLKEHSSTANIIVMSLPVARKGAVSSALYMAWLEALSKDLPPILLVRGNHQSVLTFYS
Consider B3, for which the binding entry in experiment [3] was “binds”.
